Experimental findings from paper PMC8384837 are described below.

Substitutions are numbered along the chain they refer to. The list shows a part of the results.

Holding throughout (details): yeast three-hybrid, YBZ-1, SC-Leu-His + 0.5 mM 3-AT, 4 days
Assay [1] has as its target T1, PUM1 PUF domain R1-GMR S863G + R864M + Q867R (Homo sapiens) (UniProt Q14671).
T1 sequence: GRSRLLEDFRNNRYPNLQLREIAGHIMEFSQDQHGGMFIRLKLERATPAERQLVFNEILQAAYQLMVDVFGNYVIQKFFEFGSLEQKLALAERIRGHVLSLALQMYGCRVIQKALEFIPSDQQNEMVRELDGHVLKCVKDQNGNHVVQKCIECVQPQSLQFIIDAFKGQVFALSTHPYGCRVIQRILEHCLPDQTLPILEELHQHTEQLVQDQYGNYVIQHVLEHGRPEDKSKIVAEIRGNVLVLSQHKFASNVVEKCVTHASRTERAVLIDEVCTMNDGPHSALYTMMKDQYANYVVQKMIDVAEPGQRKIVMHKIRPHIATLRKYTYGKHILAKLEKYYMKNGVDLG

In assay [2] the target is T2, PUM1 PUF domain R1-GYR S863G + R864Y + Q867R (Homo sapiens) (UniProt Q14671).
T2 sequence: T1 sequence with M37Y

The target in assay [3] is T3, PUM1 PUF domain R1-HGR S863H + R864G + Q867R (Homo sapiens) (UniProt Q14671).
T3 sequence: T1 sequence with G36H, M37G

The target in assay [4] is T4, PUM1 PUF domain R1-KFV S863K + R864F + Q867V (Homo sapiens) (UniProt Q14671).
T4 sequence: T1 sequence with G36K, M37F, R40V

The target in assay [5] is T5, PUM1 PUF domain R1-KRD S863K + Q867D (Homo sapiens) (UniProt Q14671).
T5 sequence: T1 sequence with G36K, M37R, R40D

Assay [6] addresses T6, PUM1 PUF domain R1-KRR S863K + Q867R (Homo sapiens) (UniProt Q14671).
T6 sequence: T1 sequence with G36K, M37R

For assay [7], the target named is T7, PUM1 PUF domain R1-LKR S863L + R864K + Q867R (Homo sapiens) (UniProt Q14671).
T7 sequence: T1 sequence with G36L, M37K

Assay [8] concerns the target T8, PUM1 PUF domain R1-LRR S863L + Q867R (Homo sapiens) (UniProt Q14671).
T8 sequence: T1 sequence with G36L, M37R

In assay [9] the target is T9, PUM1 PUF domain R1-MWR S863M + R864W + Q867R (Homo sapiens) (UniProt Q14671).
T9 sequence: T1 sequence with G36M, M37W

The target of assay [10] is T10, PUM1 PUF domain R1-MYR S863M + R864Y + Q867R (Homo sapiens) (UniProt Q14671).
T10 sequence: T1 sequence with G36M, M37Y

Assay [11] concerns the target T11, PUM1 PUF domain R1-NVR S863N + R864V + Q867R (Homo sapiens) (UniProt Q14671).
T11 sequence: T1 sequence with G36N, M37V

The target of assay [12] is T12, PUM1 PUF domain R1-RGI S863R + R864G + Q867I (Homo sapiens) (UniProt Q14671).
T12 sequence: T1 sequence with G36R, M37G, R40I

Assay [13] deals with T13, PUM1 PUF domain R1-RGM S863R + R864G + Q867M (Homo sapiens) (UniProt Q14671).
T13 sequence: T1 sequence with G36R, M37G, R40M

For assay [14], the target named is T14, PUM1 PUF domain R1-RHR S863R + R864H + Q867R (Homo sapiens) (UniProt Q14671).
T14 sequence: T1 sequence with G36R, M37H

In assay [15] the target is T15, PUM1 PUF domain R1-RLS S863R + R864L + Q867S (Homo sapiens) (UniProt Q14671).
T15 sequence: T1 sequence with G36R, M37L, R40S

Assay [16] deals with T16, PUM1 PUF domain R1-RRA S863R + Q867A (Homo sapiens) (UniProt Q14671).
T16 sequence: T1 sequence with G36R, M37R, R40A

For assay [17], the target named is T17, PUM1 PUF domain R1-RVV S863R + R864V + Q867V (Homo sapiens) (UniProt Q14671).
T17 sequence: T1 sequence with G36R, M37V, R40V

In assay [18] the target is T18, PUM1 PUF domain R1-SWR R864W + Q867R (Homo sapiens) (UniProt Q14671).
T18 sequence: T1 sequence with G36S, M37W

In assay [19] the target is T19, PUM1 PUF domain R1-TWR S863T + R864W + Q867R (Homo sapiens) (UniProt Q14671).
T19 sequence: T1 sequence with G36T, M37W

The target in assay [20] is T20, PUM1 PUF domain R1-VWR S863V + R864W + Q867R (Homo sapiens) (UniProt Q14671).
T20 sequence: T1 sequence with G36V, M37W

For “GGCUAGAACUAGUGGAUCCCCCGGCGCCCGGCGGCUCGAGCCCGGGUAAGUGUAAAUGGUCUGCAUGCCGCCGGGCGCCAUGCCUGCAGGUCGACUCUAGAAAACAUG”, the binding signal (log2 enrichment (interaction score)) in assay [1] is -0.3; in [2], -0.1; in assay [3], -0.05; in [4] it was -0.13; in assay [5], -0.24; in assay [6] it was -0.02. Moreover, the binding signal (log2 enrichment (interaction score)) in assay [7] is -0.22; in assay [8] it was -0.33; in [9], -0.36; in assay [10], -0.3; in [11] it was -0.53; in assay [12], -0.47. Besides, the binding signal (log2 enrichment (interaction score)) in assay [13] is -0.64; in assay [14], -0.44; in assay [15], -0.28; in assay [16], -0.33; in assay [17], -0.29; in assay [18], -0.23. The binding signal (log2 enrichment (interaction score)) in [19] was -0.22; in [20], -0.47.
